Source: patent publication US6355615B1 (Bayer Aktiengesellschaft, priority 1997, dated 2002)

Test: peptide synthesis
Conditions: late stage modification step

Row | Substance | step yield
1 | 8,20-bis-[4-(1-pyrrolyl)-benzyl]-5,11,17,23-tetraisobutyl-2,4,10,14,16,22-hexamethyl-1,7,13,19-tetraoxa-4,10,16,22-tetraaza-cyclotetracosan-6,9,12,18,21,24-hexaone | 22% of theory
2 | 8,20-dibenzyl-5,11,17,23-tetraisobutyl-2,4,10,14,16,22-hexamethyl-1,7,13,19-tetraoxa-4,10,16,22-tetraaza-cyclotetracosan-6,9,12,18,21,24-hexaone | 34 to 41% of theory
3 | 8-(4-aminobenzyl)-20-(2-aminobenzyl)-5,11,17,23-tetraisobutyl-2,4,10,14,16,22-hexamethyl-1,7,13,19-tetraoxa-4,10,16,22-tetraazatetracosan-6,9,12,18,21,24-hexaone | 11%
